Assay results as given in patent US11306123B2, “Heterotandem bicyclic peptide complex” (BicycleTx Limited, priority 2019, dated 2022).
Part of at least one peptide drawing is inferred or uncertain, most often the ends.

Protein sequences, listed by entry. Tags and fused reporters are not part of them. Residues count along the entry.
UniProt Q07011, 24-255: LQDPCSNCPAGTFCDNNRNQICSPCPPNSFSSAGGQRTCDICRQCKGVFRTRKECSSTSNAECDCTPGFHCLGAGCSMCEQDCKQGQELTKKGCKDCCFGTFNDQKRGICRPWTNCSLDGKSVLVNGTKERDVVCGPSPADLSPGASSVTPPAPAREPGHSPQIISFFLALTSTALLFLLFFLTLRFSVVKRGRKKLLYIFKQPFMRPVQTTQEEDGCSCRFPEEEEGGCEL

Key:
[1] = tested on: Nectin-4 overexpressing MC38 tumor model (MC38#13); experiment: Anti-tumor activity in MC38#13 model, IV, 10 mg/kg weekly dose in two schedules; type: in vivo, mouse; conditions: day 15
[2] = biological target: T1, Nectin-2 (Homo sapiens, UniProt Q92692); experiment: Nectin-4 paralogue screening by SPR; type: binding; conditions: Nectin-2, up to a concentration of 5000 nM
T1 construct: purchased R&D Systems 2229-N2
T1 sequence (Q92692 32-538): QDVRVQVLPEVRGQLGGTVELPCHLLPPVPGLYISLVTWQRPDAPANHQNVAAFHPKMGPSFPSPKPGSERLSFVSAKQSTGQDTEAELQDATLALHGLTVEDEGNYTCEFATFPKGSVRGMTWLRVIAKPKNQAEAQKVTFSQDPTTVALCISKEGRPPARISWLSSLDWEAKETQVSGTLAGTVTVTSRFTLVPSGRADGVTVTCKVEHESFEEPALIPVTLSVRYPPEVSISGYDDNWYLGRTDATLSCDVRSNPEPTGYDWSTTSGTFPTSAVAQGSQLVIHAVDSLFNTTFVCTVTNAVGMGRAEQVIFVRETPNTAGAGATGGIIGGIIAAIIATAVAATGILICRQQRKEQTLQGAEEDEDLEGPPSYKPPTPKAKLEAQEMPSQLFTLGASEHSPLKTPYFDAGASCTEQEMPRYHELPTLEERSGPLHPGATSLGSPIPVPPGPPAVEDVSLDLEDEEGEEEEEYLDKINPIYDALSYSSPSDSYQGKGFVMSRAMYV

[3] = biological target: T2, Nectin-like-5 (Homo sapiens, UniProt P15151); experiment: Nectin-4 paralogue screening by SPR; type: binding; conditions: Nectin-like-5, up to a concentration of 5000 nM
T2 construct: purchased R&D Systems 2530-CD-050
T2 sequence (P15151 21-417): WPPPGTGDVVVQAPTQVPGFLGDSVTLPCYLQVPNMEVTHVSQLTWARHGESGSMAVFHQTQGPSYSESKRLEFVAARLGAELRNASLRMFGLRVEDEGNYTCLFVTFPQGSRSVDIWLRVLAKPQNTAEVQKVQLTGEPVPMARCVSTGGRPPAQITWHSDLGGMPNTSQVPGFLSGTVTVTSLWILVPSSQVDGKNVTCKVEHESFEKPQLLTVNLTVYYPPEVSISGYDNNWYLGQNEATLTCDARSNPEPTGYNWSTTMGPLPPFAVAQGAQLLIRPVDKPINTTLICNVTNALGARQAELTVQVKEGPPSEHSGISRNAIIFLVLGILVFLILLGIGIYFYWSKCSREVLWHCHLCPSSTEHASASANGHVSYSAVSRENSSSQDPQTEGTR

[4] = tested on: MC38#13-cells; experiment: Immunogenic memory: re-inoculation of complete responders with MC38#13 cells; type: in vivo, mouse; conditions: 5 complete responders re-inoculated on day 69 with 1×10^6 MC38#13 cells; all 5 naïve mice grew tumors by day 13
[5] = tested on: Human PBMC; experiment: Human PBMC co-culture (cytokine release) assay; type: cell-based
[6] = tested on: Nectin-4 overexpressing MC38 tumor model (MC38#13); experiment: Anti-tumor activity in syngeneic Nectin-4 overexpressing MC38 tumor model (MC38#13), ip QD/Q3D; type: in vivo, mouse; conditions: 2 cohorts by day 7, all treatment groups by day 14; p<0.05, 2-way ANOVA
[7] = biological target: T3, Nectin-like-2 (Homo sapiens, UniProt Q9BY67); experiment: Nectin-4 paralogue screening by SPR; type: binding; conditions: Nectin-like-2, up to a concentration of 5000 nM
T3 construct: purchased R&D Systems 3519-S4-050
T3 sequence (Q9BY67 45-442): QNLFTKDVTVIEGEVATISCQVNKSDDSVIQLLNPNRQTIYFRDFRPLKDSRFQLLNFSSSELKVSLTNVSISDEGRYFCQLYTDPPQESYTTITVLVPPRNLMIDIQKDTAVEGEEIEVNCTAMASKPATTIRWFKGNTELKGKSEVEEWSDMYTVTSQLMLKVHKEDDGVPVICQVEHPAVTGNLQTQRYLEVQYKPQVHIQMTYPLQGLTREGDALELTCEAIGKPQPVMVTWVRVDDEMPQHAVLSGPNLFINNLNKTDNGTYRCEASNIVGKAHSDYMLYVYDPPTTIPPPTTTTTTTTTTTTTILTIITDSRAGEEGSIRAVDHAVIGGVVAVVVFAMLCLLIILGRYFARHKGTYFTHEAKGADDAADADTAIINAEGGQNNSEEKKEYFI

[8] = biological target: human CD137 (Homo sapiens, UniProt Q07011); experiment: SPR direct binding to immobilized CD137; conditions: FIG. 10B; very slow off rate from avidity, KD may be an overestimation
[9] = tested on: Nectin-4 overexpressing MC38 tumor model (MC38#13); experiment: Anti-tumor activity in MC38#13 model, IV, 3, 10 and 30 mg/kg total weekly dose fractionated QD, BIW, QW; type: in vivo, mouse; conditions: day 52, 5 mg/kg BIW IV
[10] = tested on: CT26#7 tumor tissue; experiment: Flow cytometry of T cells in CT26#7 tumor tissue; type: in vivo, mouse; conditions: 1 h after last (6th) Q3D dose, 5 mg/kg ip
[11] = biological target: T4, Nectin-like-1 (Homo sapiens, UniProt Q8N126); experiment: Nectin-4 paralogue screening by SPR; type: binding; conditions: Nectin-like-1, up to a concentration of 5000 nM
T4 construct: purchased R&D Systems 3678-S4-050
T4 sequence (Q8N126 25-398): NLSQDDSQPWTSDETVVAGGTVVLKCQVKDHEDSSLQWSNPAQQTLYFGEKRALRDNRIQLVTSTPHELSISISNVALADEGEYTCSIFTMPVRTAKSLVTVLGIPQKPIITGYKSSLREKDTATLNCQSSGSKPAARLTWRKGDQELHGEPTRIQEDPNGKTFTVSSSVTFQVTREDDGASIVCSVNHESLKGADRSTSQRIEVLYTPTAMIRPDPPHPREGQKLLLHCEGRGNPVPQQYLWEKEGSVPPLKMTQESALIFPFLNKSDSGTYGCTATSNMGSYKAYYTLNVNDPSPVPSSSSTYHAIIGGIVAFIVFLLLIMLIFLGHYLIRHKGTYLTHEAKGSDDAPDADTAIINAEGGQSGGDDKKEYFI

SMILES: CCCC[C@@H]1NC(=O)[C@H](Cc2ccc(O)cc2)NC(=O)[C@@H]2CCCN2C(=O)[C@H](CC(=O)O)NC(=O)[C@H](C)NC(=O)[C@H](Cc2ccccc2)NC(=O)[C@@H]2CSCCC(=O)N3CN(CN(C3)C(=O)CCSC[C@@H](C(=O)N[C@@H](C)C(N)=O)NC1=O)C(=O)CCSC[C@H](NC(C)=O)C(=O)N[C@@H](CC(C)(C)C)C(=O)N1CCC[C@H]1C(=O)N[C@@H](CCC(=O)O)C(=O)N[C@H](CCCCNC(=O)CCc1cn(CCOCCOCCOCCN(CCOCCOCCOCCC(=O)N[C@H]3CSCCC(=O)N4CN5CN(C4)C(=O)CCSC[C@H](NC(=O)[C@@H](CC(=O)O)NC(=O)[C@H](Cc4cccc6ccccc46)NC(=O)[C@@H]4CCCN4C3=O)C(=O)N[C@@H](CCSC)C(=O)N[C@@H](CCCCNC(=N)N)C(=O)N[C@@H](CC(=O)O)C(=O)N[C@@H](Cc3c[nH]c4ccccc34)C(=O)N[C@@H](CO)C(=O)N[C@@H]([C@@H](C)O)C(=O)N3CCC[C@H]3C(=O)N3C[C@H](O)C[C@H]3C(=O)N[C@@H](Cc3c[nH]c4ccccc34)C(=O)N[C@H](C(N)=O)CSCCC5=O)CCOCCOCCOCCn3cc(CCC(=O)NCCCC[C@H]4NC(=O)[C@H](CCC(=O)O)NC(=O)[C@@H]5CCCN5C(=O)[C@H](CC(C)(C)C)NC(=O)[C@@H](NC(C)=O)CSCCC(=O)N5CN6CN(C5)C(=O)CCSC[C@H](NC(=O)[C@H](Cc5ccc(O)cc5)NC(=O)[C@@H]5CCCN5C4=O)C(=O)N[C@@H](Cc4ccccc4)C(=O)N[C@@H](C)C(=O)N[C@@H](CC(=O)O)C(=O)N4CCC[C@H]4C(=O)N[C@@H](Cc4ccc(O)cc4)C(=O)N[C@@H](CCCC)C(=O)N[C@H](C(=O)N[C@@H](C)C(N)=O)CSCCC6=O)nn3)nn1)C(=O)N1CCC[C@H]1C(=O)N[C@@H](Cc1ccc(O)cc1)C(=O)N2 [BCY11863]
- Complete tumor responses ([1]; 5 mg/kg IV at 0 h and 24 h on D0 and D7): 4 out of 6
- Complete tumor responses ([1]; 10 mg/kg IV at 0 h on D0 and D7): one out of 6
- Binding by SPR [2]: did not show any binding
- Binding by SPR [3]: did not show any binding
- Tumor development after re-inoculation of complete responders [4]: none of the inoculated complete responder mice developed tumors
- Cytokine secretion induction ([5]; 4T1-Parental (Nectin4-)): No induction up to 100 nM
- IL-2 and IFN-γ cytokine secretion ([5]; PBMC-4T1 co-culture, 4T1 engineered to express Nectin-4, FIGS. 2A and 2B): induces robust IL-2 and IFN-γ cytokine secretion
- Tumor growth vs vehicle [6]: significant reduction
- Binding by SPR [7]: did not show any binding
- Binding to immobilized CD137 (human) [8]: high affinity
- Complete responders (CRs) [9]: 6/6
- complete response rate [9]: 100%
- CD8+ T cells in tumor ([10]; p<0.0001): significant increase
- Total T cells (CD45+CD3+) in tumor ([10]; p<0.0001): significant increase
- CD8+ T cell/Treg ratio in tumor ([10]; p<0.05): significant increase
- Binding by SPR [11]: did not show any binding
